{"sequences": {"note": "Protein sequences, listed by entry. Tags and fused reporters are not part of them.", "UniProt O08808": "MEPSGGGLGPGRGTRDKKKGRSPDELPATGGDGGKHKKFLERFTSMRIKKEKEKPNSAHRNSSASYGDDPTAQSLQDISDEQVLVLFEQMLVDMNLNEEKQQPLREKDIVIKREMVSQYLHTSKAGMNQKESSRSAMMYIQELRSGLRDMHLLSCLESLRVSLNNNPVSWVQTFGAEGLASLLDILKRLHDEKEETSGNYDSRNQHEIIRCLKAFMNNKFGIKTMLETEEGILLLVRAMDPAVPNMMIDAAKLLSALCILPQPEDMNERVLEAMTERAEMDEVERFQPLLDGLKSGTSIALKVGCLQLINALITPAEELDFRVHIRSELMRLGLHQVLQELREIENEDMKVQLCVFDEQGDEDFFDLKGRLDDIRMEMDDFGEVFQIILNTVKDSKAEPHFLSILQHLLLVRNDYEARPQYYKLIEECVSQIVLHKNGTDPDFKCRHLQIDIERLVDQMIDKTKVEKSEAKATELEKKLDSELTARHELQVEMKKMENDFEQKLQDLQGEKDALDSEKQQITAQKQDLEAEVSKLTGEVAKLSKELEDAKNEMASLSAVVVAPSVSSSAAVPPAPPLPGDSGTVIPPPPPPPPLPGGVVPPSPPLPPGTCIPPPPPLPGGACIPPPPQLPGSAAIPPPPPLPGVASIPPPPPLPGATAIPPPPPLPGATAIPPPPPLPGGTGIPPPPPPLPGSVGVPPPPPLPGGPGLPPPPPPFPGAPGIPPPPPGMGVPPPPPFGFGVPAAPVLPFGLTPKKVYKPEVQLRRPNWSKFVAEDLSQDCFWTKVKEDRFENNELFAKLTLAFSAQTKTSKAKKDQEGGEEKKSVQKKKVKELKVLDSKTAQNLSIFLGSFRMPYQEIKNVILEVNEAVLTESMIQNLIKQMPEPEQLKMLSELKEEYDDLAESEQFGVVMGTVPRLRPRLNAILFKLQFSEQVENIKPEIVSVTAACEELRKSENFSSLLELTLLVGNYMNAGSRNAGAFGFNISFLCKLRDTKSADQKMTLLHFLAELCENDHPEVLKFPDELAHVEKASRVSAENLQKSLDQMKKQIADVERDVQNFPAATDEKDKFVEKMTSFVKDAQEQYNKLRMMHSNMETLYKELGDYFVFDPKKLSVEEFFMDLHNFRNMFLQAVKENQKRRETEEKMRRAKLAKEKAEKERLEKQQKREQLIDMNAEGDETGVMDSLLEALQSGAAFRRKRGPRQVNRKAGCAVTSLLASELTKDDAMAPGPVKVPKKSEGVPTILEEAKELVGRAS"}, "source": "paper PMC10616211", "key": {"[1]": {"molecular_target": "T1, MFN2, endogenous mouse (bone marrow-derived macrophages) (mouse (endogenous in BMDMs)) (UniProt Q80U63)", "T1 sequence": "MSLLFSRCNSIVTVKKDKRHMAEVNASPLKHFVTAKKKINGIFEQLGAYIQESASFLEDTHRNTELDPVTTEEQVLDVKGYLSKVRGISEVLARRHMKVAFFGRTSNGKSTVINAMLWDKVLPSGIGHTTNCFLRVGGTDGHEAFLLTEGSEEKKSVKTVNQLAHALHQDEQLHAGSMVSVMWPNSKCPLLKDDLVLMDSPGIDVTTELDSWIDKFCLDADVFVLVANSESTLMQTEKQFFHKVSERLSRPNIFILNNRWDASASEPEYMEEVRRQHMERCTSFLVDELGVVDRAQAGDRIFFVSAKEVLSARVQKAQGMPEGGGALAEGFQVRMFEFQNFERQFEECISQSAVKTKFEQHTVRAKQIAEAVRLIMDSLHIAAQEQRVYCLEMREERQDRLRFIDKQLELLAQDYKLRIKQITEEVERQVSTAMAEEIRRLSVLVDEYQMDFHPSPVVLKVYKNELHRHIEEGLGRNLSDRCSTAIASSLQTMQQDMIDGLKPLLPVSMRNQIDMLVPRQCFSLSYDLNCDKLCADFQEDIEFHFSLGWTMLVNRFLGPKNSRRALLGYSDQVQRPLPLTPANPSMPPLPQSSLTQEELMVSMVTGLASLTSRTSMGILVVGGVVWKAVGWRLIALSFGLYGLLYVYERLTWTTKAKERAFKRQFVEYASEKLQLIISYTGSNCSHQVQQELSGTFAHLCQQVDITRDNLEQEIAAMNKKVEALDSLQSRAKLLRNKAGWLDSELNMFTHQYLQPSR", "assay": "proximity ligation; Duolink PLA on fixed mouse bone marrow-derived macrophages, with and without Diaph1"}, "[2]": {"molecular_target": "T2, MFN2, endogenous in mouse bone marrow-derived macrophages (BMDMs) (mouse (endogenous in BMDMs)) (UniProt Q80U63)", "T2 sequence": "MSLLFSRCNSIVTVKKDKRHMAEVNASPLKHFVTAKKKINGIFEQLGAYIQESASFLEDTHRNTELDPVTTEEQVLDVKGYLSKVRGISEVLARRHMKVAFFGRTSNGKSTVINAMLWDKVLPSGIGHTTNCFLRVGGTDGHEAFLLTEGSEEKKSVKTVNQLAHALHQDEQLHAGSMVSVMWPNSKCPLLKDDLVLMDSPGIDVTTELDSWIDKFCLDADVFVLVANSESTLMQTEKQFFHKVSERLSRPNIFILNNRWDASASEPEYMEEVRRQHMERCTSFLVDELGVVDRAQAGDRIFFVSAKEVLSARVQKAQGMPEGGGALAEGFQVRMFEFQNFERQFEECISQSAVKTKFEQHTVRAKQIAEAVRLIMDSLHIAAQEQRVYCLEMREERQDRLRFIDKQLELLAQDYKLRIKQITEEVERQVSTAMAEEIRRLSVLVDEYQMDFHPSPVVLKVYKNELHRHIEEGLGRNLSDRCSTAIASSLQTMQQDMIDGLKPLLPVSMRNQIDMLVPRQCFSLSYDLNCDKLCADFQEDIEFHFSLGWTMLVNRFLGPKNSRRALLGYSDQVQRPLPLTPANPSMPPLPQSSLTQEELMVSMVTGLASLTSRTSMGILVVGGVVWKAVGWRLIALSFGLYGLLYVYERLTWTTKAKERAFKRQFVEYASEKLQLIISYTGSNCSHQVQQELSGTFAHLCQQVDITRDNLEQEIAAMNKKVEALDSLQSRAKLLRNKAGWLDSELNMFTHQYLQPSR", "assay": "proximity ligation; Duolink PLA on fixed cells (H9C2, HMVECs, BMDMs), endogenous proteins, rabbit anti-DIAPH1 and mouse anti-MFN2; shScr/WT against shDIAPH1/gDKO cells"}, "[3]": {"molecular_target": "T3, Mitofusin-2 (MFN2), endogenous human (human (endogenous in HiPSC-CMs, HMVECs, human heart)) (UniProt O95140)", "T3 sequence": "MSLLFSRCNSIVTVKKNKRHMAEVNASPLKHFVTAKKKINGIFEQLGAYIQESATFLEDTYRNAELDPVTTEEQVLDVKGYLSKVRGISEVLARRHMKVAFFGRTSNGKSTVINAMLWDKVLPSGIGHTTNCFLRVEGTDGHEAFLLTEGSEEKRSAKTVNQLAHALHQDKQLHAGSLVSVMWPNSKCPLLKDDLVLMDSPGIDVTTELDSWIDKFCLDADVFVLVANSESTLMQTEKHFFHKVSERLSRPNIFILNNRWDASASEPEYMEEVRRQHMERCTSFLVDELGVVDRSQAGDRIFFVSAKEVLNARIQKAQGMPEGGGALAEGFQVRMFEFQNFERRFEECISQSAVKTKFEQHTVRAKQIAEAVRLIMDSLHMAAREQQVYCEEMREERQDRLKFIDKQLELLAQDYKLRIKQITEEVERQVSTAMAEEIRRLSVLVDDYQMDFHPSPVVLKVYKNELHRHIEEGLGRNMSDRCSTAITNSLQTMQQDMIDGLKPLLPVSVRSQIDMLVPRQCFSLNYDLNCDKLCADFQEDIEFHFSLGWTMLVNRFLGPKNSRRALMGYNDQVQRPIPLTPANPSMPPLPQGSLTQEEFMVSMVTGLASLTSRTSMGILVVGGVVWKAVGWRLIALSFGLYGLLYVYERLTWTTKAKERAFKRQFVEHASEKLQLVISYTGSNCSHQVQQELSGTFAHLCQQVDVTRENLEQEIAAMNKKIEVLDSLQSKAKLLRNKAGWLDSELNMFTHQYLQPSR", "assay": "proximity ligation; Duolink PLA on fixed HiPSC-CMs, baseline and H/R; also with shDIAPH1, shAGER, Latrunculin B, RAGE229, CML-AGE, ER-Tracker co-staining"}}, "note": "These are yes or no findings as the source states them, for the method shown. Binding seen in cells or lysates may run through a third protein. Some binding calls cover weakened binding; strength is not graded here. For part of these data: Tags and fused reporters may be left off the sequences shown.", "data": [{"molecule": "DIAPH1, endogenous mouse (bone marrow-derived macrophages) (from UniProt O08808 1-1255)", "values": [{"measurement": "binding", "setting": "[1]", "result": "binds"}]}, {"molecule": "DIAPH1, endogenous in mouse bone marrow-derived macrophages (BMDMs) (from UniProt O08808 1-1255)", "values": [{"measurement": "binding", "setting": "[2]", "result": "binds"}]}, {"molecule": "DIAPH2, endogenous (protein, UniProt O60879 1-1101) MEQPGAAASGAGGGSEEPGGGRSNKRSAGNRAANEEETKNKPKLNIQIKTLADDVRDRITSFRKSTVKKEKPLIQHPIDSQVAMSEFPAAQPLYDERSLNLSEKEVLDLFEKMMEDMNLNEEKKAPLRNKDFTTKREMVVQYISATAKSGGLKNSKHECTLSSQEYVHELRSGISDEKLLNCLESLRVSLTSNPVSWVNNFGHEGLGLLLDELEKLLDKKQQENIDKKNQYKLIQCLKAFMNNKFGLQRILGDERSLLLLARAIDPKQPNMMTEIVKILSAICIVGEENILDKLLGAITTAAERNNRERFSPIVEGLENQEALQLQVACMQFINALVTSPYELDFRIHLRNEFLRSGLKTMLPDLKEKENDELDIQLKVFDENKEDDLTELSHRLNDIRAEMDDMNEVYHLLYNMLKDTAAENYFLSILQHFLLIRNDYYIRPQYYKIIEECVSQIVLHCSGMDPDFKYRQRLDIDLTHLIDSCVNKAKVEESEQKAAEFSKKFDEEFTARQEAQAELQKRDEKIKELEAEIQQLRTQAQVLSSSSGIPGPPAAPPLPGVGPPPPPPAPPLPGGAPLPPPPPPLPGMMGIPPPPPPPLLFGGPPPPPPLGGVPPPPGISLNLPYGMKQKKMYKPEVSMKRINWSKIEPTELSENCFWLRVKEDKFENPDLFAKLALNFATQIKVQKNAEALEEKKTGPTKKKVKELRILDPKTAQNLSIFLGSYRMPYEDIRNVILEVNEDMLSEALIQNLVKHLPEQKILNELAELKNEYDDLCEPEQFGVVMSSVKMLQPRLSSILFKLTFEEHINNIKPSIIAVTLACEELKKSESFNRLLELVLLVGNYMNSGSRNAQSLGFKINFLCKIRDTKSADQKTTLLHFIADICEEKYRDILKFPEELEHVESASKVSAQILKSNLASMEQQIVHLERDIKKFPQAENQHDKFVEKMTSFTKTAREQYEKLSTMHNNMMKLYENLGEYFIFDSKTVSIEEFFGDLNNFRTLFLEAVRENNKRREMEEKTRRAKLAKEKAEQEKLERQKKKKQLIDINKEGDETGVMDNLLEALQSGAAFRDRRKRIPRNPDNRRVPLERSRSRHNGAISSK", "values": [{"measurement": "binding", "setting": "[3]", "result": "no binding"}]}]}
